Measurements published in article PMC5141367, “Structural decoding of netrin-4 reveals a regulatory function towards mature basement membranes” (Nature Communications, 2016).

Columns and labels:
Experiment in all cases: BLI + other: solid-phase binding assay; Supplementary Fig. 3; which of the two methods was used for which receptor is not told in the text shown
UNC5A ectodomain = biological target: UNC5A ectodomain
UNC5D ectodomain = biological target: UNC5D ectodomain
UNC5C ectodomain = biological target: UNC5C ectodomain

Measured: binding

B1: full-length Net4 (Net4-FL) (natural protein, Mus musculus, UniProt Q9JI33 20-628, looked up)
chain: LNGVAGANSRCEKACNPRMGNLALGRKLRADTMCGQNATELFCFYSENADLTCRQPKCDKCNAAHSHLAHPPSAMADSSFRFPRTWWQSAEDVHREKIQLDLEAEFYFTHLIMVFKSPRPAAMVLDRSQDFGKTWKPYKYFATNCSATFGLEDDVVKKGAICTSRYSNPFPCTGGEVIFRALSPPYDIENPYSAKVQEQLKITNLRVRLLKRQSCPCQINDLNAKPHHFMHYAVYDFIVKGSCFCNGHADQCLPVEGFRPIKAPGAFHVVHGRCMCKHNTAGSHCQHCAPLYNDRPWEAADGRTGAPNECRTCKCNGHADTCHFDVNVWEASGNRSGGVCNNCQHNTEGQHCQRCKPGFYRDLRRPFSAPDACKACSCHPVGSAILPFSSVTFCDPSNGDCPCKPGVAGPHCDRCMVGYWGFGDYGCRPCDCAGSCDPLTGDCISSNADVDWYHEVPAFHSMHNKSEPSWEWEDEQGFSALRHSGKCECKEQVLGNPKAFCGMKYSYVLKIKILSAHDKGSHAEVNVKIKKVLKSTKLKILRGKRTLYPESWTNRGCTCPILNPGLEYLVAGHEDVRTGKLIVNMKSFVQHWKPALGRRVMHILKRDCV
notes: also called netrin-4; wild-type Net4; source: HEK293, stably transfected, purified (streptactin-sepharose, thrombin digestion, SEC); not shown: double Strep II, N-terminal, cleaved
no binding: all assays above

No constants are given. Whether binding was seen depends on the method and setting.
